Test results as given in the supplement of paper PMC6078165.
The reference is the same well before dosing, and untreated signal decays as well.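 Fibroblast labels denote human fibroblasts, mainly primary ones from uterus (C12385, HUF), lung (H6013), bone (Hs27A), adrenal (HADF) and skin (WS1), plus mammary HMF and breast cancer-associated Hs343T. Cancer cells are basal-like or mesenchymal-like triple-negative breast cancer lines. A hit is a response shift exceeding 3x replicate standard deviation. The tissue of the other fibroblasts is not given here.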

System: Hs578T
Assay: relative JC-1 red fluorescence (viability) vs pre-drug, coculture with fibroblast (fraction); higher = more viable cancer cells
Experimental: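 JC-1 labelled TNBC cells cocultured 1:1 (1,500 cells each) with CellTrace Violet stained primary or stromal fibroblasts in 384-well plates in FluoroBrite medium, treated with one of 42 anticancer drugs at 0.1, 1, 10 or 100 uM. JC-1 red fluorescence (mitochondrial integrity in cancer cells only) was read by plate reader every 8 h for 72 h. Values are normalised to each well's pre-drug value. The stock of one drug was tenfold lower, so its dose labels may be too high.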

O=NN(CCCl)C(=O)NCCCl [Carmustine]
relative JC-1 red fluorescence
Settings	8 h	16 h	24 h	32 h	40 h	48 h	56 h	64 h	72 h
0.1 µM	0.908	0.818	0.747	0.701	0.643	0.602	0.574	0.528	0.509
1 µM	0.869	0.772	0.70741	0.662	0.591	0.542	0.522	0.478	0.456

relative JC-1 red fluorescence
Settings	8 h	16 h	24 h	32 h	40 h	48 h	56 h	64 h	72 h
0.1 µM, coculture fibroblast: C12385	0.83	0.725	0.67718	0.589	0.528	0.49	0.462	0.446	0.441
0.1 µM, coculture fibroblast: H6013	0.887	0.812	0.772	0.739	0.714	0.708	0.677	0.67	0.643
0.1 µM, coculture fibroblast: H6019	0.7965	0.6874	0.68	0.598	0.567	0.543	0.512	0.49	0.467
0.1 µM, coculture fibroblast: H6076	0.889	0.804	0.787	0.789	0.763	0.7754	0.7571	0.77	0.771
0.1 µM, coculture fibroblast: H6231	0.866	0.7611	0.692	0.68	0.617	0.593	0.55	0.532	0.514
0.1 µM, coculture fibroblast: HADF	0.9078	0.8662	0.751	0.695	0.636	0.597	0.56	0.541	0.508
0.1 µM, coculture fibroblast: HCFa	0.8947	0.843	0.747	0.697	0.617	0.574	0.533	0.507	0.458
0.1 µM, coculture fibroblast: HCPF	0.9054	0.8091	0.745	0.718	0.657	0.641	0.624	0.587	0.58
0.1 µM, coculture fibroblast: HHSteC	0.895	0.8274	0.72	0.663	0.6	0.557	0.52	0.493	0.458
0.1 µM, coculture fibroblast: HMF	0.8499	0.7742	0.723	0.731	0.68	0.667	0.636	0.62	0.615
0.1 µM, coculture fibroblast: HPFa	0.911	0.861	0.761	0.682	0.623	0.575	0.525	0.501	0.448
0.1 µM, coculture fibroblast: HUF	0.8779	0.785	0.758	0.648	0.582	0.554	0.518	0.509	0.503
0.1 µM, coculture fibroblast: Hs27A	0.8646	0.794	0.741	0.69	0.635	0.611	0.576	0.559	0.512
0.1 µM, coculture fibroblast: Hs343T	0.876	0.7863	0.737	0.737	0.678	0.649	0.61	0.602	0.612
0.1 µM, coculture fibroblast: WS1	0.8337	0.719	0.676	0.591	0.529	0.511	0.478	0.473	0.471
1 µM, coculture fibroblast: C12385	0.7825	0.711	0.698	0.608	0.559	0.529	0.514	0.51	0.513
1 µM, coculture fibroblast: H6013	0.854	0.844	0.826	0.817	0.808	0.7999	0.7785	0.773	0.741
1 µM, coculture fibroblast: H6019	0.769	0.685	0.649	0.556	0.505	0.4726	0.437	0.4135	0.3817
1 µM, coculture fibroblast: H6076	0.845	0.791	0.757	0.7582	0.724	0.729	0.726	0.73	0.746
1 µM, coculture fibroblast: H6231	0.892	0.792	0.726	0.674	0.613	0.586	0.547	0.518	0.5036
1 µM, coculture fibroblast: HADF	0.902	0.801	0.738	0.683	0.646	0.631	0.6	0.595	0.574
1 µM, coculture fibroblast: HCFa	0.819	0.769	0.716	0.661	0.602	0.585	0.54	0.523	0.483
1 µM, coculture fibroblast: HCPF	0.886	0.791	0.735	0.692	0.637	0.606	0.591	0.552	0.543
1 µM, coculture fibroblast: HHSteC	0.8468	0.783	0.733	0.685	0.631	0.598	0.571	0.55	0.509
1 µM, coculture fibroblast: HMF	0.873	0.795	0.741	0.704	0.641	0.6024	0.572	0.549	0.535
1 µM, coculture fibroblast: HPFa	0.892	0.786	0.721	0.668	0.635	0.594	0.557	0.533	0.488
1 µM, coculture fibroblast: HUF	0.8552	0.721	0.7	0.593	0.537	0.5	0.466	0.453	0.449
1 µM, coculture fibroblast: Hs27A	0.86608	0.7821	0.743	0.699	0.646	0.625	0.58	0.57	0.517
1 µM, coculture fibroblast: Hs343T	0.87	0.776	0.739	0.724	0.652	0.629	0.606	0.593	0.599
1 µM, coculture fibroblast: WS1	0.805	0.702	0.673	0.576	0.524	0.507	0.484	0.489	0.493
